Results as given in patent EP0683227A1, “Human retinoic acid receptor and genes encoding for it” (INSTITUT NATIONAL DE LA SANTE ET DE LA RECHERCHE MEDICALE …, priority 1989, dated 1991).
At least one compound was matched to its structure with a doubt left.

Assays:
[1] = tested on: hRAR-γ (human retinoic acid receptor γ, hRAR-γD cDNA in pSG5 = hRAR-γ0); experiment: RA-dependent transcriptional activation of (TRE₃)₃-tk-CAT reporter by hRAR-γ0 in HeLa cells (CAT activity); format: cell-based; details: exposed 24 h post transfection, CAT activity 48 hours after transfection
Description: To test the ability of hRAR-γ to activate transcription, hRAR-γD cDNA was subcloned into the eukaryotic expression vector pSG5 [Green, S., Issemann, I. & Scheer, E. Nucleic Acids Res. 16, 369 (1988)] as described in Example 6, to give hRAR-γ0 which was co-transfected into HeLa cells along with a reporter plasmid, (TRE₃)₃-tk-CAT, which contains a synthetic RA responsive element as described in Example 6. The transfected cells were exposed (24 hour post transfection) to increasing concentrations of RA, and RA-induced activation of transcription was evaluated 48 hours after transfection by determining the CAT activity expressed from the reporter gene.
The entire 1.5 kb insert from the hRAR-γD clone was inserted into the EcoRI site of the eukaryotic expression vector pSG5 [Green, S., Issemann, I. & Scheer, E. Nucleic Acids Res. 16, 369 (1988)], to yield hRAR-γ0. 500 ng of hRAR-γ0 was transfected into HeLa cells along with 2 µg of the (TRE₃)₃-tk-CAT reporter plasmid, 2 µg of a β-galactosidase expressing plasmid pCH110 (to normalize for variations in transfection efficiency) and 15 µg of carrier DNA (BSM13+) as described [Petkovich, M., Brand, N. J., Krust, A. & Chambon, P. Nature 330, 444-450 (1987)]. 24 hours following transfection, the cells were exposed for an additional 24 hour to RA for retinol with concentrations ranging from 10⁻¹¹M to 10⁻⁶. […]

[2] = tested on: F9 teratocarcinoma cells; experiment: Northern blot of mRAR RNAs in F9 cells after RA treatment (densitometric scanning); format: cell-based, mouse; details: RA 3.3x10⁻⁷M, 24 and 48 hours

CC1=C(/C=C/C(C)=C/C=C/C(C)=C/C(=O)O)C(C)(C)CCC1 [RA, retinoic acid]
RA concentration at which maximal transactivation was achieved [1]: 10⁻⁸ to 10⁻⁷
variation of mRAR-α RNA [2]: no significant variation
